PubChem BioAssay AID743121 | NCATS, 2013
Here is one part, drawn at random, of about 26,000 deposited reagents. 167 of all reagents (0.63%) count as active. 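Calls are per gene from RSA p-values that are not deposited; an individual active-marked siRNA can sensitise only weakly.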 A number with no mark means an inactive call. The numbers tell different reagents against one gene apart. Further read-outs or replicates are left out here.

- Aim: 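Knock-downs that sensitise breast cancer cells to camptothecin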 (primary screen)
- Cells: MDA-MB-231 cells, a human breast cancer line
- Reagent: single siRNA against human genes, 20 nM siRNA (0.8 pmol per well)
- Duration: 120 h (drug added 48 h after transfection, read 72 h later)
- Challenge: camptothecin 20 nM (about EC30) for 72 h; vehicle 0.1% DMSO in parallel plates
- Measured: 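Cell viability by ATP luminescence (CellTiter-Glo) as % of non-targeting siRNA wells, and the log2 ratio of viability without drug over viability with camptothecin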
- Reading the numbers: log2 vehicle/camptothecin viability: higher = stronger sensitisation to camptothecin
- Active means: 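Active genes have an RSA gene-level p-value below 0.001, computed from the ratios of their separate siRNAs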

TOMM22 #1 showed log2 vehicle/camptothecin viability -0.206.
After knock-down of TOMM22 #2 the results were log2 vehicle/camptothecin viability -0.356.
Silencing of TOMM22 #3 resulted in: log2 vehicle/camptothecin viability -0.176.
Depletion of MYF6 #1 came out at: log2 vehicle/camptothecin viability -0.515.
With knock-down of MYF6 #2, the screen gave log2 vehicle/camptothecin viability 0.478.
For MYF6 #3, the values are log2 vehicle/camptothecin viability -0.185.
Silencing of ACTR2 #1 resulted in: log2 vehicle/camptothecin viability -0.211.
Silencing of ACTR2 #2 gave: log2 vehicle/camptothecin viability -0.0223.
ACTR2 #3 scored log2 vehicle/camptothecin viability -0.173.
For ACTR2 #4 the deposit lists log2 vehicle/camptothecin viability -0.679.

In a second layout: 2 of the entries above.
{"gene":"TOMM22","reagent":3,"log2 vehicle/camptothecin viability":-0.176}
{"gene":"MYF6","reagent":1,"log2 vehicle/camptothecin viability":-0.515}

The listing continues.
ACP1 #1 showed log2 vehicle/camptothecin viability -0.071.
For ACP1 #2, the values are log2 vehicle/camptothecin viability -0.458.
After knock-down of ACP1 #3, the screen gave log2 vehicle/camptothecin viability 0.221.
After knock-down of ACP1 #4, the screen gave log2 vehicle/camptothecin viability -0.0424.
Against ACP1 #5, the values are log2 vehicle/camptothecin viability -0.385.
After knock-down of ACP1 #6, the record shows log2 vehicle/camptothecin viability -0.06.
After knock-down of ACP1 #7, the record shows log2 vehicle/camptothecin viability -0.179.
ACP1 #8 scored log2 vehicle/camptothecin viability 0.492.
